From US20130018039A1, “IMIDAZOLYL-IMIDAZOLES AS KINASE INHIBITORS” (priority 2010, published 2013)
Structures can show the parent of a compound that is named as a salt. Some entries share one result that the patent states for a list of compounds.

Sequences of proteins named here, by UniProt entry; tags and fusion partners are left off.
UniProt O43353, whole entry: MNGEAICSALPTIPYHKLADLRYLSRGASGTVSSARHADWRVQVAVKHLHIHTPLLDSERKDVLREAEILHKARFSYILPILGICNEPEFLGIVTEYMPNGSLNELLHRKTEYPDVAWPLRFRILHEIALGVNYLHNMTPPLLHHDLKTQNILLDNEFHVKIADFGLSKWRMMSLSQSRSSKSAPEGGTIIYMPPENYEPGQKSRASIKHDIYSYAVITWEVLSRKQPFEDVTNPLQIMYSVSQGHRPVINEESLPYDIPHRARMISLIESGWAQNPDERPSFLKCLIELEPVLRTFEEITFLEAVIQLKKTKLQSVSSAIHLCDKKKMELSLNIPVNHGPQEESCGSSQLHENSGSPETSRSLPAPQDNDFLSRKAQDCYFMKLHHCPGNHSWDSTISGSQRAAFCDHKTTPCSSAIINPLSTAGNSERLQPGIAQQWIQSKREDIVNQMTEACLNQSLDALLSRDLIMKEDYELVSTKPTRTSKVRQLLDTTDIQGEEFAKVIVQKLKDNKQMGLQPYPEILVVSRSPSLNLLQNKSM

Target: T1, RIPK2 (full length FLAG His tagged RIPK2; RIP2 kinase) (Homo sapiens, UniProt O43353)
T1 construct: Full length FLAG His tagged RIPK2 was purified from a Baculovirus expression system; FLAG (N); 6His (N); made in house; host or cells: Spodoptera frugiperda (Sf9) insect cells, baculovirus
Assay: Fluorescent polarization based binding assay, competition with a fluorescently labeled ATP competitive ligand at the ATP binding pocket of RIPK2
Conditions: pIC50s averaged, minimum of 2 experiments; fluorescent ligand 5 nM

Compound: COCCn1c(-c2cnc(-c3ccc4scnc4c3)[nH]2)nc2ccccc21 [Example 83, 5-(4-{1-[2-(methyloxy)ethyl]-1H-benzimidazol-2-yl}-1H-imidazol-2-yl)-1,3-benzothiazole]
- mean pIC50: greater than 4.0

Compound: COCCn1c(-c2cnc(-c3ccc4scnc4c3)[nH]2)nc2c(S(C)(=O)=O)cccc21 [Example 84, 5-{4-[1-[2-(methyloxy)ethyl]-4-(methylsulfonyl)-1H-benzimidazol-2-yl]-1H-imidazol-2-yl}-1,3-benzothiazole trifluoroacetate]
- mean pIC50: greater than 4.0

Compound: COCCn1c(-c2cnc(-c3ccc4scnc4c3)[nH]2)nc2c(S(=O)(=O)Cc3ccccc3)cccc21 [Example 85, 5-(4-{1-[2-(methyloxy)ethyl]-4-[(phenylmethyl)sulfonyl]-1H-benzimidazol-2-yl}-1H-imidazol-2-yl)-1,3-benzothiazole]
- mean pIC50: greater than 4.0

Compound: COCCn1c(-c2cnc(-c3ccc4scnc4c3)[nH]2)nc2c(N3CCOCC3)cccc21 [Example 86, 5-{4-[1-[2-(methyloxy)ethyl]-4-(4-morpholinyl)-1H-benzimidazol-2-yl]-1H-imidazol-2-yl}-1,3-benzothiazole]
- mean pIC50: greater than 4.0

Compound: COCCn1c(-c2cnc(-c3ccc4scnc4c3)[nH]2)nc2c(N3CCOCC3)nccc21 [Example 87, 2-[2-(1,3-benzothiazol-5-yl)-1H-imidazol-4-yl]-1-[2-(methyloxy)ethyl]-4-(4-morpholinyl)-1H-imidazo[4,5-c]pyridine trifluoroacetate]
- mean pIC50: greater than 4.0

Compound: COCCn1c(-c2cnc(-c3ccc4scnc4c3)[nH]2)nc2c(N3CCOC[C@@H]3C)nccc21 [Example 88, 2-[2-(1,3-benzothiazol-5-yl)-1H-imidazol-4-yl]-4-[(3S)-3-methyl-4-morpholinyl]-1-[2-(methyloxy)ethyl]-1H-imidazo[4,5-c]pyridine]
- mean pIC50: greater than 4.0

Compound: COCCn1c(-c2cnc(-c3ccc4scnc4c3)[nH]2)nc2c(N3CCOC[C@H]3C)nccc21 [Example 89, 2-[2-(1,3-benzothiazol-5-yl)-1H-imidazol-4-yl]-4-[(3R)-3-methyl-4-morpholinyl]-1-[2-(methyloxy)ethyl]-1H-imidazo[4,5-c]pyridine]
- mean pIC50: greater than 4.0

Compound: CC[C@@H]1COCCN1c1nccc2c1nc(-c1cnc(-c3ccc4scnc4c3)[nH]1)n2CCOC [Example 90, 2-[2-(1,3-benzothiazol-5-yl)-1H-imidazol-4-yl]-4-[(3R)-3-ethyl-4-morpholinyl]-1-[2-(methyloxy)ethyl]-1H-imidazo[4,5-c]pyridine]
- mean pIC50: greater than 4.0

Compound: COCCn1c(-c2cnc(-c3ccc4scnc4c3)[nH]2)nc2c(N3CCOC(C)C3)nccc21 (stereo not drawn) [Example 91, 2-[2-(1,3-benzothiazol-5-yl)-1H-imidazol-4-yl]-4-(2-methyl-4-morpholinyl)-1-[2-(methyloxy)ethyl]-1H-imidazo[4,5-c]pyridine]
- mean pIC50: greater than 4.0

Compound: CC[C@@H]1CO[C@H](CO)CN1c1nccc2c1nc(-c1cnc(-c3ccc4scnc4c3)[nH]1)n2CCOC [Example 92, ((2S,5R)-4-{2-[2-(1,3-benzothiazol-5-yl)-1H-imidazol-4-yl]-1-[2-(methyloxy)ethyl]-1H-imidazo[4,5-c]pyridin-4-yl}-5-ethyl-2-morpholinyl)methanol]
- mean pIC50: greater than 4.0

Compound: COCCn1c(-c2cnc(-c3ccc4scnc4c3)[nH]2)nc2c(N3C[C@@H](CO)OC[C@@H]3C)nccc21 [Example 93, ((2S,5S)-4-{2-[2-(1,3-benzothiazol-5-yl)-1H-imidazol-4-yl]-1-[2-(methyloxy)ethyl]-1H-imidazo[4,5-c]pyridin-4-yl}-5-methyl-2-morpholinyl)methanol]
- mean pIC50: greater than 4.0

Compound: COCCn1c(-c2cnc(-c3ccc4scnc4c3)[nH]2)nc2c(N3CCCCC3)nccc21 [Example 94, 2-[2-(1,3-benzothiazol-5-yl)-1H-imidazol-4-yl]-1-[2-(methyloxy)ethyl]-4-(1-piperidinyl)-1H-imidazo[4,5-c]pyridine]
- mean pIC50: greater than 4.0

Compound: COCCn1c(-c2cnc(-c3ccc4scnc4c3)[nH]2)nc2c(N3CCCC3)nccc21 [Example 95, 2-[2-(1,3-benzothiazol-5-yl)-1H-imidazol-4-yl]-1-[2-(methyloxy)ethyl]-4-(1-pyrrolidinyl)-1H-imidazo[4,5-c]pyridine]
- mean pIC50: greater than 4.0

Compound: COCCn1c(-c2cnc(-c3ccc4scnc4c3)[nH]2)nc2c(N3CCC3)nccc21 [Example 96, 4-(1-azetidinyl)-2-[2-(1,3-benzothiazol-5-yl)-1H-imidazol-4-yl]-1-[2-(methyloxy)ethyl]-1H-imidazo[4,5-c]pyridine]
- mean pIC50: greater than 4.0

Compound: COCCn1c(-c2cnc(-c3ccc4scnc4c3)[nH]2)nc2c(N3CCN(C)CC3)nccc21 [Example 97, 2-[2-(1,3-benzothiazol-5-yl)-1H-imidazol-4-yl]-1-[2-(methyloxy)ethyl]-4-(4-methyl-1-piperazinyl)-1H-imidazo[4,5-c]pyridine]
- mean pIC50: greater than 4.0

Compound: COCCn1c(-c2cnc(-c3ccc4scnc4c3)[nH]2)nc2c(N3CCN(C)[C@@H](C)C3)nccc21 [Example 98, 2-[2-(1,3-benzothiazol-5-yl)-1H-imidazol-4-yl]-4-[(3S)-3,4-dimethyl-1-piperazinyl]-1-[2-(methyloxy)ethyl]-1H-imidazo[4,5-c]pyridine]
- mean pIC50: greater than 4.0

Compound: COCCN(C)c1nccc2c1nc(-c1cnc(-c3ccc4scnc4c3)[nH]1)n2CCOC [Example 99, 2-[2-(1,3-benzothiazol-5-yl)-1H-imidazol-4-yl]-N-methyl-N,1-bis[2-(methyloxy)ethyl]-1H-imidazo[4,5-c]pyridin-4-amine]
- mean pIC50: greater than 4.0

Compound: COCCn1c(-c2cnc(-c3ccc4scnc4c3)[nH]2)nc2c(N(C)CCO)nccc21 [Example 100, 2-[{2-[2-(1,3-benzothiazol-5-yl)-1H-imidazol-4-yl]-1-[2-(methyloxy)ethyl]-1H-imidazo[4,5-c]pyridin-4-yl}(methyl)amino]ethanol]
- mean pIC50: greater than 4.0

Compound: CCN(CCOC)c1nccc2c1nc(-c1cnc(-c3ccc4scnc4c3)[nH]1)n2CCOC [Example 101, 2-[2-(1,3-benzothiazol-5-yl)-1H-imidazol-4-yl]-N-ethyl-N,1-bis[2-(methyloxy)ethyl]-1H-imidazo[4,5-c]pyridin-4-amine]
- mean pIC50: greater than 4.0

Compound: COCCn1c(-c2cnc(-c3ccc4scnc4c3)[nH]2)nc2c(N3CCOCC3)nc(C)cc21 [Example 102, 2-[2-(1,3-benzothiazol-5-yl)-1H-imidazol-4-yl]-6-methyl-1-[2-(methyloxy)ethyl]-4-(4-morpholinyl)-1H-imidazo[4,5-c]pyridine]
- mean pIC50: greater than 4.0

Compound: COCCn1c(-c2cnc(-c3ccc4scnc4c3)[nH]2)nc2cc(S(=O)(=O)N3CCOCC3)ccc21 [Example 103, 5-{4-[1-[2-(methyloxy)ethyl]-5-(4-morpholinylsulfonyl)-1H-benzimidazol-2-yl]-1H-imidazol-2-yl}-1,3-benzothiazole]
- mean pIC50: greater than 4.0

Compound: COCCn1c(-c2cnc(-c3ccc4scnc4c3)[nH]2)nc2cc(S(=O)(=O)N3CCNCC3)ccc21 [Example 104, 5-{4-[1-[2-(methyloxy)ethyl]-5-(1-piperazinylsulfonyl)-1H-benzimidazol-2-yl]-1H-imidazol-2-yl}-1,3-benzothiazole]
- mean pIC50: greater than 4.0

Compound: COCCn1c(-c2cnc(-c3ccc4scnc4c3)[nH]2)nc2cc(S(=O)(=O)N3CCCC3)ccc21 [Example 105, 5-{4-[1-[2-(methyloxy)ethyl]-5-(1-pyrrolidinylsulfonyl)-1H-benzimidazol-2-yl]-1H-imidazol-2-yl}-1,3-benzothiazole]
- mean pIC50: greater than 4.0

Compound: COCCNS(=O)(=O)c1ccc2c(c1)nc(-c1cnc(-c3ccc4scnc4c3)[nH]1)n2CCOC [Example 106, 2-[2-(1,3-benzothiazol-5-yl)-1H-imidazol-4-yl]-N,1-bis[2-(methyloxy)ethyl]-1H-benzimidazole-5-sulfonamide]
- mean pIC50: greater than 4.0

Compound: COCCNS(=O)(=O)c1cc2nc(-c3cnc(-c4ccc5scnc5c4)[nH]3)n(CCOC)c2cc1C [Example 107, 2-[2-(1,3-benzothiazol-5-yl)-1H-imidazol-4-yl]-6-methyl-N,1-bis[2-(methyloxy)ethyl]-1H-benzimidazole-5-sulfonamide]
- mean pIC50: greater than 4.0

Compound: COCCn1c(-c2c[nH]c(-c3ccc4scnc4c3)n2)nc2cc(C(=O)O)c(C)cc21 [Example 108, 2-[2-(1,3-benzothiazol-5-yl)-1H-imidazol-4-yl]-6-methyl-1-[2-(methyloxy)ethyl]-1H-benzimidazole-5-carboxylic acid]
- mean pIC50: greater than 4.0

Compound: COCCn1c(-c2cnc(-c3ccc4scnc4c3)[nH]2)nc2cc(S(=O)(=O)N3CCN(C)CC3)c(C)cc21 [Example 109, 5-(4-{6-methyl-1-[2-(methyloxy)ethyl]-5-[(4-methyl-1-piperazinyl)sulfonyl]-1H-benzimidazol-2-yl}-1H-imidazol-2-yl)-1,3-benzothiazole]
- mean pIC50: greater than 4.0

Compound: COCCn1c(-c2cnc(-c3ccc4scnc4c3)[nH]2)nc2cc(S(=O)(=O)N3CCOCC3)c(C)cc21 [Example 110, 5-{4-[6-methyl-1-[2-(methyloxy)ethyl]-5-(4-morpholinylsulfonyl)-1H-benzimidazol-2-yl]-1H-imidazol-2-yl}-1,3-benzothiazole]
- mean pIC50: greater than 4.0

Compound: COCCn1c(-c2cnc(-c3ccc4scnc4c3)[nH]2)nc2cc(C(=O)O)ccc21 [Example 111, 2-[2-(1,3-benzothiazol-5-yl)-1H-imidazol-4-yl]-1-[2-(methyloxy)ethyl]-1H-benzimidazole-5-carboxylic acid]
- mean pIC50: greater than 4.0

Compound: COCCn1c(-c2cn(C)c(-c3ccc4scnc4c3)n2)nc2ccc(C)cc21 [Example 112, 5-(1-methyl-4-{6-methyl-1-[2-(methyloxy)ethyl]-1H-benzimidazol-2-yl}-1H-imidazol-2-yl)-1,3-benzothiazole trifluoroacetate]
- mean pIC50: greater than 4.0
